Reference: PubChem BioAssay AID192 (DTP/NCI, 2004)
The list is a part of this screen's results and no random one: it is rich in T/C values a quarter to a half above the control, in often repeated tests (any T/C) and in doses without a T/C. Further doses and runs are listed elsewhere. T/C is the treated group as % of the vehicle group. Some entries give survivors of the animals treated and no T/C: the source holds a T/C of zero for them, seemingly a mark for toxic or unscored doses. Some survivor counts are full or nearly so, which does not show that the dose was tolerated: the source hardly ever lists a survival T/C far under the control, and the zero likely stands for such cases as well. Counts of survivors are from the toxicity check (mostly the fifth day) where no day follows; animals may have died later. Schedules are NCI's codes, taken here to give the interval after Q, in days (D) or hours (H), and the number of doses after X. Marks such as (2×) stand for listed records that agree. Some doses were run more than once; their values stand side by side, smallest first. Where survival is the endpoint, the PubChem record calls one and a half times the control and up active, and a quarter to a half above the control has no call in these data; cut-offs in other NCI protocols can differ.

System: BDF1 mice, B16 melanoma ip, median survival T/C
Experiment: NCI In Vivo Anticancer Drug Screen. Data for tumor model B16 Melanoma (intraperitoneal) in B6D2F1 (BDF1) mice
Conditions: T/C endpoint: median survival time, higher T/C = longer survival
In short: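 Mice with transplantable tumors; drug vs vehicle groups; endpoint survival or tumor size; value = T/C.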

[1] = dose: 200.0 mg/kg/injection, schedule: Q01DX009 (ip), vehicle: Klucel (hydroxypropylcellulose) (HPC)
[2] = dose: 400.0 mg/kg/injection, schedule: Q01DX009 (ip), vehicle: Klucel (hydroxypropylcellulose) (HPC)
[3] = dose: 12.5 mg/kg/injection, schedule: Q01DX009 (ip), vehicle: saline
[4] = dose: 25.0 mg/kg/injection, schedule: Q01DX009 (ip), vehicle: saline
[5] = dose: 50.0 mg/kg/injection, schedule: Q01DX009 (ip), vehicle: saline
[6] = dose: 100.0 mg/kg/injection, schedule: Q01DX009 (ip), vehicle: saline
[7] = dose: 200.0 mg/kg/injection, schedule: Q01DX009 (ip), vehicle: saline
[8] = dose: 25.0 mg/kg/injection, schedule: Q01DX009 (ip), vehicle: saline with Tween-80
[9] = dose: 50.0 mg/kg/injection, schedule: Q01DX009 (ip), vehicle: saline with Tween-80
[10] = dose: 100.0 mg/kg/injection, schedule: Q01DX009 (ip), vehicle: saline with Tween-80
[11] = dose: 200.0 mg/kg/injection, schedule: Q01DX009 (ip), vehicle: water
[12] = dose: 400.0 mg/kg/injection, schedule: Q01DX009 (ip), vehicle: water
[13] = dose: 6.25 mg/kg/injection, schedule: Q01DX009 (ip), vehicle: saline

Nc1nc(=S)c2[nH]c(N=Nc3ccc(S(=O)(=O)O)cc3)nc2[nH]1
survivor count (dose: 25.0 mg/kg/injection, schedule: Q04DX003 (ip), vehicle: saline): 10 of 10 | survivor count (dose: 50.0 mg/kg/injection, schedule: Q04DX003 (ip), vehicle: saline): 10 of 10 | survivor count (dose: 100.0 mg/kg/injection, schedule: Q04DX003 (ip), vehicle: saline): 4 of 10

NC(CCCC(=O)O)P(=O)(O)O (stereo not drawn)
survivor count [1]: 8 of 10 | survivor count [2]: 5 of 10

CC[P+](CC)(CC)CCCCI
T/C [3]: 125 % of control | T/C [4]: 130 % of control | T/C [5]: 138 % of control | survivor count [6]: 0 of 10 | survivor count [7]: 0 of 10

O=C1C(=O)c2ccccc2-c2ccccc21
T/C [8]: 141 % of control | survivor count [9]: 10 of 10 | survivor count [10]: 10 of 10 | survivor count (dose: 100.0 mg/kg/injection, schedule: Q04DX003 (ip), vehicle: saline with Tween-80): 9 of 10 | survivor count (dose: 200.0 mg/kg/injection, schedule: Q04DX003 (ip), vehicle: saline with Tween-80): 4 of 10

CC/C(=C(\c1ccccc1)c1ccc(OCCN(C)C)cc1)c1ccccc1
survivor count (dose: 400.0 mg/kg/injection, schedule: Q01DX009 (ip), vehicle: suspension in saline): 10 of 10

Cc1cc(C)c(COCc2cc(C)c(C)cc2C)cc1C
survivor count [11]: 6 of 6 | survivor count [12]: 4 of 6

CCCCCCCC(N)=O
survivor count (dose: 400.0 mg/kg/injection, schedule: Q01DX009 (ip), vehicle: saline with Tween-80): 10 of 10

c1cc[c]([Pb]([c]2ccccc2)([c]2ccccc2)[n]2ccc3ccccc32)cc1
survivor count (dose: 4.68 mg/kg/injection, schedule: Q01DX009 (ip), vehicle: saline with Tween-80): 9 of 10

FC(F)(F)c1ccc2c(c1)N(CCCN1CCN(CCC3OCCCO3)CC1)c1ccccc1S2
survivor count (dose: 0.78 mg/kg/injection, schedule: Q01DX009 (ip), vehicle: saline): 10 of 10 | survivor count (dose: 1.56 mg/kg/injection, schedule: Q01DX009 (ip), vehicle: saline): 10 of 10 | T/C (dose: 3.12 mg/kg/injection, schedule: Q01DX009 (ip), vehicle: saline): 132 % of control | survivor count [13]: 10 of 10 | survivor count [3]: 8 of 10 and 10 of 10

CCOC(=O)C(C#N)N=O (stereo not drawn)
survivor count [6]: 5 of 10 | survivor count [7]: 0 of 10 | survivor count (dose: 200.0 mg/kg/injection, schedule: Q04DX003 (ip), vehicle: saline): 2 of 10

COc1cc2c[n+](C)c3c4cc5c(cc4ccc3c2cc1OC)OCO5
T/C (dose: 6.25 mg/kg/injection, schedule: Q01DX009 (ip), vehicle: saline with Tween-80): 131 % of control | T/C (dose: 10.0 mg/kg/injection, schedule: Q01DX009 (ip), vehicle: water): 136 % of control | T/C (dose: 12.5 mg/kg/injection, schedule: Q01DX009 (ip), vehicle: saline with Tween-80): 132 % of control | T/C (dose: 20.0 mg/kg/injection, schedule: Q01DX009 (ip), vehicle: water): 141 % of control | T/C [8]: 141 % of control | survivor count [9]: 10 of 10 | survivor count (dose: 80.0 mg/kg/injection, schedule: Q01DX009 (ip), vehicle: water): 10 of 10 | survivor count [10]: 10 of 10 (2×)

CN(C)CCSc1cc(O)c2c(c1O)C(=O)c1ccccc1C2=O
survivor count [11]: 10 of 10 | survivor count [12]: 7 of 10

C1CC2(CCN1)SSC1(CCNCC1)S2
survivor count (dose: 400.0 mg/kg/injection, schedule: Q04DX003 (ip), vehicle: saline): 6 of 10

Brc1ccc(C[N+]23CN4CN(CN(C4)C2)C3)cc1
survivor count [2]: 0 of 10

N#Cc1ncc(C(Cl)Cl)nc1Cl
survivor count [9]: 5 of 10 | survivor count [10]: 2 of 10 | survivor count (dose: 200.0 mg/kg/injection, schedule: Q01DX009 (ip), vehicle: saline with Tween-80): 0 of 10

CSc1sc2ccccc2[n+]1C
survivor count [7]: 1 of 10

[N-]=[N+]=CC(=O)CCC(=O)C=[N+]=[N-]
T/C (dose: 0.09 mg/kg/injection, schedule: Q01DX009 (ip), vehicle: other): 128 % of control | T/C (dose: 0.2 mg/kg/injection, schedule: Q01DX009 (ip), vehicle: other): 128 % of control | T/C (dose: 0.75 mg/kg/injection, schedule: Q01DX009 (ip), vehicle: other): 143 % of control | T/C (dose: 0.78 mg/kg/injection, schedule: Q01DX009 (ip), vehicle: other): 126 % of control | T/C (dose: 1.5 mg/kg/injection, schedule: Q01DX009 (ip), vehicle: other): 142 % of control | survivor count (dose: 3.0 mg/kg/injection, schedule: Q01DX009 (ip), vehicle: other): 10 of 10 | survivor count (dose: 3.12 mg/kg/injection, schedule: Q01DX009 (ip), vehicle: other): 10 of 10 | survivor count (dose: 6.0 mg/kg/injection, schedule: Q01DX009 (ip), vehicle: other): 10 of 10 | survivor count (dose: 6.25 mg/kg/injection, schedule: Q01DX009 (ip), vehicle: other): 10 of 10 (2×) | survivor count (dose: 12.5 mg/kg/injection, schedule: Q01DX009 (ip), vehicle: other): 10 of 10 (2×) | survivor count (dose: 25.0 mg/kg/injection, schedule: Q01DX009 (ip), vehicle: other): 8 of 10 and 10 of 10 | survivor count (dose: 50.0 mg/kg/injection, schedule: Q01DX009 (ip), vehicle: other): 9 of 10 and 10 of 10

COc1c([N+](=O)[O-])cc(C(=O)O)cc1[N+](=O)[O-]
survivor count [2]: 1 of 10

C=CCOCC(O)CN(CCC(C)C)CCC(C)C (stereo not drawn)
survivor count (dose: 100.0 mg/kg/injection, schedule: Q04DX003 (ip), vehicle: Klucel (hydroxypropylcellulose) (HPC)): 5 of 10 | survivor count (dose: 200.0 mg/kg/injection, schedule: Q04DX003 (ip), vehicle: Klucel (hydroxypropylcellulose) (HPC)): 0 of 10 | survivor count (dose: 400.0 mg/kg/injection, schedule: Q04DX003 (ip), vehicle: Klucel (hydroxypropylcellulose) (HPC)): 0 of 10

O=C1c2ccccc2C(=O)c2c(NCCN3CCNCC3)ccc(NCCN3CCNCC3)c21
survivor count (dose: 128.0 mg/kg/injection, schedule: Q01DX009 (ip), vehicle: acid diluted with saline): 0 of 10

COc1cc2c(cc1OC)C13CCN4CC5=CCOC6CC(=O)N2C1C6C5CC43 (stereo not drawn) (tested in a mixture with another compound)
survivor count (dose: 100.0 mg/kg/injection, schedule: Q01DX009 (ip), vehicle: Klucel (hydroxypropylcellulose) (HPC)): 5 of 10

O=C1C(Cl)=C(N2CC2)C(=O)C(Cl)=C1N1CC1
T/C (dose: 5.0 mg/kg/injection, schedule: Q01DX009 (ip), vehicle: saline): 125 % of control | survivor count (dose: 10.0 mg/kg/injection, schedule: Q01DX009 (ip), vehicle: saline): 5 of 10 | survivor count (dose: 20.0 mg/kg/injection, schedule: Q01DX009 (ip), vehicle: saline): 0 of 10

CNC(C)CC1CCCCC1 (stereo not drawn)
survivor count [5]: 9 of 10

O=[N+]([O-])c1ccc(C(O)C=C(C(F)(F)F)C(F)(F)F)cc1 (stereo not drawn)
survivor count (dose: 50.0 mg/kg/injection, schedule: Q01DX009 (ip), vehicle: Klucel (hydroxypropylcellulose) (HPC)): 8 of 10

ClCC[Se](Cl)(Cl)c1ccccc1
survivor count [13]: 7 of 10 | survivor count [3]: 3 of 10 | survivor count [4]: 4 of 10

Cn1cnc([N+](=O)[O-])c1S(=O)(=O)NCN1CCOCC1
survivor count [1]: 4 of 10 | survivor count [2]: 0 of 10

COc1cc(Cc2nccc3cc(OC)c(OC)cc23)c(C(C)=O)cc1OC
survivor count [6]: 10 of 10
